For at least one compound, name, drawing or mass did not settle the structure.
Test: Long-term storage stability of the amorphous form by powder XRD
Type: physicochemical
Conditions: XRD spectra compared
Procedure: This means that the amorphous Na salt of TMC435 allows stable storage during a normal shelf life period. X-ray powder diffraction (XRPD) analysis was carried out on a Philips X′PertPRO MPD diffractometer PW3050/60 with generator PW3040. The instrument was equipped with a Cu LFF X-ray tube PW3373/10. The compound was spread on a zero background sample holder.

## COc1ccc2c(O[C@@H]3C[C@H]4C(=O)N[C@]5(C(=O)[N-]S(=O)(=O)C6CC6)C[C@H]5/C=C\CCCCN(C)C(=O)[C@@H]4C3)cc(-c3nc(C(C)C)cs3)nc2c1C.[Na+] [amorphous sodium salt of TMC435]
  period over which the amorphous form is stable: exceeding 1½ years
